Assay results reported in article PMC6984821.
No constants are given. Whether binding was seen depends on the method and setting. Binding seen in cells or lysates may run through a third protein. A yes stands for co-enrichment or nearness to the bait. Other partners may have been found.

Protein sequences, listed by entry. Tags and fused reporters are not part of them.
UniProt O95819: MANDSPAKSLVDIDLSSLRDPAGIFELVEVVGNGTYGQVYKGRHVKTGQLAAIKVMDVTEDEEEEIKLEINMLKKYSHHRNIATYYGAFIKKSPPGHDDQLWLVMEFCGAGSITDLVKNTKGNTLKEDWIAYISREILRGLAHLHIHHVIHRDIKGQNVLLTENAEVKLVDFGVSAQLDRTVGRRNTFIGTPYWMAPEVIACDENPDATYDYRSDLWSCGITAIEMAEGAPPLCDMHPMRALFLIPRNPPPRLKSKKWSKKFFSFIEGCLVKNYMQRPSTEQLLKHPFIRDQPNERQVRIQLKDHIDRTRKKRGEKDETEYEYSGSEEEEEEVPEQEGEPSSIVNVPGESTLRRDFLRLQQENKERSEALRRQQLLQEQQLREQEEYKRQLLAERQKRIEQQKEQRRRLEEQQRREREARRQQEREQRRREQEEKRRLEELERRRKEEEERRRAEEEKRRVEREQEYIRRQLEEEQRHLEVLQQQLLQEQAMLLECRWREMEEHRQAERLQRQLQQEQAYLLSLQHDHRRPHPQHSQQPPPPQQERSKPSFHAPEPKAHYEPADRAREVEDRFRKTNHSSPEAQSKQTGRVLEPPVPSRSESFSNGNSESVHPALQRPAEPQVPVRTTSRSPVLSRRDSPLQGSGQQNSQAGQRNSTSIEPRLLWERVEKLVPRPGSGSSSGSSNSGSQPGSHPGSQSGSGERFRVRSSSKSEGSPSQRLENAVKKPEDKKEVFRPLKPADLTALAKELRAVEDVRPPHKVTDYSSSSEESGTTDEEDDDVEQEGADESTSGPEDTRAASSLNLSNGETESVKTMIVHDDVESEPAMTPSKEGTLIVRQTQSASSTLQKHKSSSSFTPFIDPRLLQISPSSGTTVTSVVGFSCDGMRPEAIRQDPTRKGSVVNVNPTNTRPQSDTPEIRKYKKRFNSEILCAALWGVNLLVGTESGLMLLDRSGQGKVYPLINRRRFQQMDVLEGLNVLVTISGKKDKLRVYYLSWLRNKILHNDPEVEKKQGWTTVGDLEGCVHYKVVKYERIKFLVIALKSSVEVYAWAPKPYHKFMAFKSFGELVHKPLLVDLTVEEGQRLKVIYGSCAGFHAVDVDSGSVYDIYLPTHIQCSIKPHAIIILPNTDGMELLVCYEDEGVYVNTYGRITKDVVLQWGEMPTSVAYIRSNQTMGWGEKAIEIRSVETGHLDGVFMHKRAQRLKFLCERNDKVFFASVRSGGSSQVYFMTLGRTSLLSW
UniProt P03081: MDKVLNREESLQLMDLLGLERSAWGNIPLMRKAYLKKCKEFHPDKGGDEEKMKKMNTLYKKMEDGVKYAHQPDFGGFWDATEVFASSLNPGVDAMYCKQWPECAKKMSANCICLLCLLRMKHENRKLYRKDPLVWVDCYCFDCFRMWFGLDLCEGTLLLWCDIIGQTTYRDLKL
UniProt P67775: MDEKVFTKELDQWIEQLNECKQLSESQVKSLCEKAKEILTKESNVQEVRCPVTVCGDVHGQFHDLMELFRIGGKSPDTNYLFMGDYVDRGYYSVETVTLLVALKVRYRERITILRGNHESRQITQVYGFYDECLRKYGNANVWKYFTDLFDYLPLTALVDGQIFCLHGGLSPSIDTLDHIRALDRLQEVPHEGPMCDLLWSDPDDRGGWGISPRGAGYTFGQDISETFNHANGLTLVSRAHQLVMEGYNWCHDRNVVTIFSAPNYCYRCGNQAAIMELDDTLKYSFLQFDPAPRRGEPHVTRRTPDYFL
UniProt P30153: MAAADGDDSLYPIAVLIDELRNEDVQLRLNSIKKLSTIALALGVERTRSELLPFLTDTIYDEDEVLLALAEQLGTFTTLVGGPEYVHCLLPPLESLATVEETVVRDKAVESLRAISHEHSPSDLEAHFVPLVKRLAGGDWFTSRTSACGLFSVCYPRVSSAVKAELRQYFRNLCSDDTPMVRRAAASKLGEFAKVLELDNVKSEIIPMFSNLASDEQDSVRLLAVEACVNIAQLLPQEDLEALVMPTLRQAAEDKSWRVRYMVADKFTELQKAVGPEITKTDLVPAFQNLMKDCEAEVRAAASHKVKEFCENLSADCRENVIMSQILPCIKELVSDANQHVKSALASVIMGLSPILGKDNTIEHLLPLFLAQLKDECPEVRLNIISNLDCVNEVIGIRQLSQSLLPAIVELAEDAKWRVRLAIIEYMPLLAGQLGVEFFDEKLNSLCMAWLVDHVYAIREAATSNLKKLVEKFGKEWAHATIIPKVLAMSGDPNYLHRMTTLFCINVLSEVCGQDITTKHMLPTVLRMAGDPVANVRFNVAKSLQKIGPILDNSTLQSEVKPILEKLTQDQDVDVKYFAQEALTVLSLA

B1: CTTNBP2NL, endogenous (protein, UniProt Q9P2B4 1-639)
chain: MNLEKLSKPELLTLFSILEGELEARDLVIEALKAQHRDTFIEERYGKYNISDPLMALQRDFETLKEKNDGEKQPVCTNPLSILKVVMKQCKNMQERMLSQLAAAESRHRKVILDLEEERQRHAQDTAEGDDVTYMLEKERERLTQQLEFEKSQVKKFEKEQKKLSSQLEEERSRHKQLSSMLVLECKKATNKAAEEGQKAGELSLKLEKEKSRVSKLEEELAAERKRGLQTEAQVEKQLSEFDIEREQLRAKLNREENRTKTLKEEMESLKKIVKDLEASHQHSSPNEQLKKPVTVSKGTATEPLMLMSVFCQTESFPAERTHGSNIAKMTNTGLPGPATPAYSYAKTNGHCDPEIQTTRELTAGNNVENQVPPREKSVALAQEKPVENGGCPVGIETPVPMPSPLSSSGSSLSPSSTASSSLTSSPCSSPVLTKRLLGSSASSPGYQSSYQVGINQRFHAARHKFQSQADQDQQASGLQSPPSRDLSPTLIDNSAAKQLARNTVTQVLSRFTSQQGPIKPVSPNSSPFGTDYRNLANTANPRGDTSHSPTPGKVSSPLSPLSPGIKSPTIPRAERGNPPPIPPKKPGLTPSPSATTPLTKTHSQAASLTTAEDLASSCSSNTVVANGKDVELLLPTSS
B2: SIKE1, endogenous (protein, UniProt Q9BRV8 1-207)
chain: MSCTIEKILTDAKTLLERLREHDAAAESLVDQSAALHRRVAAMREAGTALPDQYQEDASDMKDMSKYKPHILLSQENTQIRDLQQENRELWISLEEHQDALELIMSKYRKQMLQLMVAKKAVDAEPVLKAHQSHSAEIESQIDRICEMGEVMRKAVQVDDDQFCKIQEKLAQLELENKELRELLSISSESLQARKENSMDTASQAIK
B3: SLMAP, endogenous (protein, UniProt Q14BN4 1-828)
chain: MPSALAIFTCRPNSHPFQERHVYLDEPIKIGRSVARCRPAQNNATFDCKVLSRNHALVWFDHKTGKFYLQDTKSSNGTFINSQRLSRGSEESPPCEILSGDIIQFGVDVTENTRKVTHGCIVSTIKLFLPDGMEARLRSDVIHAPLPSPVDKVAANTPSMYSQELFQLSQYLQEALHREQMLEQKLATLQRLLAITQEASDTSWQALIDEDRLLSRLEVMGNQLQACSKNQTEDSLRKELIALQEDKHNYETTAKESLRRVLQEKIEVVRKLSEVERSLSNTEDECTHLKEMNERTQEELRELANKYNGAVNEIKDLSDKLKVAEGKQEEIQQKGQAEKKELQHKIDEMEEKEQELQAKIEALQADNDFTNERLTALQVRLEHLQEKTLKECSSLEHLLSKSGGDCTFIHQFIECQKKLIVEGHLTKAVEETKLSKENQTRAKESDFSDTLSPSKEKSSDDTTDAQMDEQDLNEPLAKVSLLKDDLQGAQSEIEAKQEIQHLRKELIEAQELARTSKQKCFELQALLEEERKAYRNQVEESTKQIQVLQAQLQRLHIDTENLREEKDSEITSTRDELLSARDEILLLHQAAAKVASERDTDIASLQEELKKVRAELERWRKAASEYEKEITSLQNSFQLRCQQCEDQQREEATRLQGELEKLRKEWNALETECHSLKRENVLLSSELQRQEKELHNSQKQSLELTSDLSILQMSRKELENQVGSLKEQHLRDSADLKTLLSKAENQAKDVQKEYEKTQTVLSELKLKFEMTEQEKQSITDELKQCKNNLKLLREKGNNKPWPWMPMLAALVAVTAIVLYVPGLARASP
B4: STRN3, endogenous (protein, UniProt Q13033 1-797)
chain: MDELAGGGGGGPGMAAPPRQQQGPGGNLGLSPGGNGAAGGGGPPASEGAGPAAGPELSRPQQYTIPGILHYIQHEWARFEMERAHWEVERAELQARIAFLQGERKGQENLKKDLVRRIKMLEYALKQERAKYHKLKYGTELNQGDLKMPTFESEETKDTEAPTAPQNSQLTWKQGRQLLRQYLQEVGYTDTILDVRSQRVRSLLGLSNSEPNGSVETKNLEQILNGGESPKQKGQEIKRSSGDVLETFNFLENADDSDEDEENDMIEGIPEGKDKHRMNKHKIGNEGLAADLTDDPDTEEALKEFDFLVTAEDGEGAGEARSSGDGTEWDKDDLSPTAEVWDVDQGLISKLKEQYKKERKGKKGVKRANRTKLYDMIADLGDDELPHIPSGIINQSRSASTRMTDHEGARAEEAEPITFPSGGGKSFIMGSDDVLLSVLGLGDLADLTVTNDADYSYDLPANKDAFRKTWNPKYTLRSHFDGVRALAFHPVEPVLVTASEDHTLKLWNLQKTVPAKKSASLDVEPIYTFRAHIGPVLSLAISSNGEQCFSGGIDATIQWWNMPSPSVDPYDTYEPNVLAGTLVGHTDAVWGLAYSGIKNQLLSCSADGTVRLWNPQEKLPCICTYNGDKKHGIPTSVDFIGCDPAHMVTSFNTGSAVIYDLETSQSLVILSSQVDSGLQSNNHINRVVSHPTLPVTITAHEDRHIKFFDNKTGKMIHSMVAHLDAVTSLAVDPNGIYLMSGSHDCSIRLWNLDSKTCVQEITAHRKKLDESIYDVAFHSSKAYIASAGADALAKVFV
B5: STRN4, endogenous (protein, UniProt Q9NRL3 1-753)
chain: MMEERAAAAVAAAASSCRPLGSGAGPGPTGAAPVSAPAPGPGPAGKGGGGGGSPGPTAGPEPLSLPGILHFIQHEWARFEAEKARWEAERAELQAQVAFLQGERKGQENLKTDLVRRIKMLEYALKQERAKYHKLKFGTDLNQGEKKADVSEQVSNGPVESVTLENSPLVWKEGRQLLRQYLEEVGYTDTILDMRSKRVRSLLGRSLELNGAVEPSEGAPRAPPGPAGLSGGESLLVKQIEEQIKRNAAGKDGKERLGGSVLGQIPFLQNCEDEDSDEDDELDSVQHKKQRVKLPSKALVPEMEDEDEEDDSEDAINEFDFLGSGEDGEGAPDPRRCTVDGSPHELESRRVKLQGILADLRDVDGLPPKVTGPPPGTPQPRPHEDVFIMDTIGGGEVSLGDLADLTVTNDNDLSCDLSDSKDAFKKTWNPKFTLRSHYDGIRSLAFHHSQSALLTASEDGTLKLWNLQKAVTAKKNAALDVEPIHAFRAHRGPVLAVAMGSNSEYCYSGGADACIHSWKIPDLSMDPYDGYDPSVLSHVLEGHGDAVWGLAFSPTSQRLASCSADGTVRIWDPSSSSPACLCTFPTASEHGVPTSVAFTSTEPAHIVASFRSGDTVLYDMEVGSALLTLESRGSSGPTQINQVVSHPNQPLTITAHDDRGIRFLDNRTGKPVHSMVAHLDAVTCLAVDPNGAFLMSGSHDCSLRLWSLDNKTCVQEITAHRKKHEEAIHAVACHPSKALIASAGADALAKVFV

What follows are molecules tested against T1, STRN4, endogenous (human (endogenous in HEK TER, IMR90)) (UniProt Q9NRL3) (assay: affinity purification with mass spectrometry; endogenous STRN4 isolated with STRN4 antibody crosslinked to protein A agarose from extracts of HEK TER cells expressing SV40 ST or GFP, overnight at 4C, washes with 300 mM NaCl; MudPIT).
T1 sequence: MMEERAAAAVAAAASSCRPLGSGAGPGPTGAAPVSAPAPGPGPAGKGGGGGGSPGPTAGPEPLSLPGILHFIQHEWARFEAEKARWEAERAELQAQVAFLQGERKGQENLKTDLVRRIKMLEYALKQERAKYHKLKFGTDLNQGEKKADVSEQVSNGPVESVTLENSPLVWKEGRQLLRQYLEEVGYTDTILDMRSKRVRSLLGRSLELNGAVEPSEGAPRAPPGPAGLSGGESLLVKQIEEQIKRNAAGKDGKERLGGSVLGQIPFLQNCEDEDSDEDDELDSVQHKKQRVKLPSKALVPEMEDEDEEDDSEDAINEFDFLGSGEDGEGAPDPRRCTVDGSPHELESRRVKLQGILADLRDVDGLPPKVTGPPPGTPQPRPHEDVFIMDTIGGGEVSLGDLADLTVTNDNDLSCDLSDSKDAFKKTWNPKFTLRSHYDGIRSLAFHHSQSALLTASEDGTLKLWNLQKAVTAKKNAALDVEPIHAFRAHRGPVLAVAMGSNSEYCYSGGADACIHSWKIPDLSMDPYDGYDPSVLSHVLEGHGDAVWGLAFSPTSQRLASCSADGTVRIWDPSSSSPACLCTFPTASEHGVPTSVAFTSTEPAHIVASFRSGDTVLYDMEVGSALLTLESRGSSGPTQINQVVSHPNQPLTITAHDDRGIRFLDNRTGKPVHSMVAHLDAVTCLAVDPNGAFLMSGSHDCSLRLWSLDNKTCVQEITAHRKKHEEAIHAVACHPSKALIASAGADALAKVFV
“mitogen-activated protein kinase kinase kinase kinase 4 (MAP4K4), endogenous (from UniProt O95819 1-1239)” was tested, and the binding was “binds”.
For “SV40 Small T antigen as expressed in HEK TER ST cells (from UniProt P03081 1-174)”, the binding was “binds”.
In the case of “PP2A C (catalytic) subunit, endogenous (from UniProt P67775 1-309)”, the binding is reported as “binds”.

Biological target: T1, STRN4, endogenous (human (endogenous in HEK TER, IMR90))
Assay: as above
Remark: another data set of the same source
For B1, the binding was “binds”.
B2 was tested, and the binding was “binds”.
For B3, the binding was “binds”.

Each molecule was assayed against NTAP-MAP4K4 (N-terminal Flag-HA tagged MAP4K4) (human) (UniProt O95819) (assay: affinity purification with mass spectrometry; FLAG immunoprecipitation of NTAP-MAP4K4 from combined extracts of SILAC-encoded HEK TER cells expressing ST or GFP; two independent IPs).
For “PP2A Aα subunit, endogenous (from UniProt P30153 1-589)”, the binding was “binds”.
For B4, the binding was “binds”.
In the case of B5, the binding is reported as “binds”.
